The list does not hold the whole screen: it gathers tests that were run many times, whatever their T/C, doses with no T/C, and many T/C values between a quarter and a half above the control. Further doses and runs are listed elsewhere. T/C is the treated group as % of the vehicle group. Some doses have a count of surviving animals in place of a T/C: the source files T/C as zero there, which appears to mark a toxic dose or a test without result, not a measured value. Some doses without a T/C left all or most animals alive at the check, yet need not have been tolerated: the source hardly ever lists a survival T/C far under the control, and the zero likely stands for such cases as well. Counts of survivors are from the toxicity check (mostly the fifth day) where no day follows; animals may have died later. Schedule codes are those of the source, taken here to give the interval after Q, in days (D) or hours (H), and the number of doses after X. Some doses were run more than once; the results are listed from low to high. Where survival is the endpoint, this PubChem deposit counts one and a half times the control or more as active, and values a quarter to a half above the control carry no call in these data; other NCI protocols may use other cut-offs. Some T/C values are followed by the survivors on the day toxicity was checked, most often the fifth; where none is given, no animal had died by that day.

This note sets out measurements from PubChem BioAssay AID330 (DTP/NCI, 2004).

This assay has as its system P388 leukemia ip, CD2F1 mice, survival T/C. Nature of the assay: NCI In Vivo Anticancer Drug Screen. Data for tumor model P388 Leukemia (intraperitoneal) in CD2F1 (CDF1) mice. The settings on record: T/C endpoint: median survival time, higher T/C = longer survival.
Setting [1] is: dose: 200.0 mg/kg/injection, schedule: Q01DX005 (ip), vehicle: Klucel (hydroxypropylcellulose) (HPC).
Setting [2] is: dose: 100.0 mg/kg/injection, schedule: Q01DX009 (ip), vehicle: saline.
The mark [3] stands for this setting: dose: 400.0 mg/kg/injection, schedule: Q04DX002 (ip), vehicle: saline with Tween-80.
Where [4] appears, read: dose: 100.0 mg/kg/injection, schedule: Q01DX005 (ip), vehicle: saline with Tween-80.
Setting [5] is: dose: 15.0 micrograms/kg/injection, schedule: Q01DX005 (ip), vehicle: saline + alcohol.
[6] abbreviates: dose: 200.0 mg/kg/injection, schedule: Q01DX005 (ip), vehicle: saline with Tween-80.
Setting [7] is: dose: 100.0 mg/kg/injection, schedule: Q01DX009 (ip), vehicle: saline with Tween-80.
[8] abbreviates: dose: 200.0 mg/kg/injection, schedule: Q01DX009 (ip), vehicle: saline with Tween-80.

As to `CC(=O)OC1COC(n2cnc3c(Cl)nc(Cl)nc32)C(OC(C)=O)C1OC(C)=O` (configuration not stated), under setting [1], the survivor count is 2 of 6.

As to `O=C(C=C(C(F)(F)F)C(F)(F)F)c1ccc(C(=O)C=C(C(F)(F)F)C(F)(F)F)cc1`, the survivor count (dose: 200.0 mg/kg/injection, schedule: Q04DX003 (ip), vehicle: saline with Tween-80) was 5 of 6.

Consider `COc1cc(C2SCC(=O)N2c2nnc(C(F)(F)F)s2)cc(OC)c1OC` (configuration not stated), for which the survivor count (dose: 240.0 mg/kg/injection, schedule: Q01DX005 (ip), vehicle: saline with Tween-80) was 6 of 6.

With `N#Cc1ccc(NN=NCCSCCO)cc1`, the T/C (dose: 200.0 mg/kg/injection, schedule: Q01DX009 (ip), vehicle: distilled water + alcohol) is 138 % of control [5 of 6 alive].

In the case of `Cc1cc2cc(N)ccc2[se]1`, the survivor count (dose: 50.0 mg/kg/injection, schedule: Q01DX009 (ip), vehicle: saline) is on record as 6 of 6.

For `Cn1nc(-c2ccc(Cl)c(Cl)c2)nc2c(=O)n(C)c(=O)nc1-2`, the survivor count (dose: 100.0 mg/kg/injection, schedule: Q01DX001 (ip), vehicle: Klucel (hydroxypropylcellulose) (HPC)) is 2 of 6 and the survivor count (dose: 200.0 mg/kg/injection, schedule: Q01DX001 (ip), vehicle: Klucel (hydroxypropylcellulose) (HPC)) was 0 of 6.

Regarding `[Co].[N-]=C=S.[N-]=C=S.[N-]=C=S.[NH-]CC[N-]CC[NH-]`, the survivor count (dose: 11.0 mg/kg/injection, schedule: Q01DX009 (ip), vehicle: saline) is 6 of 6; the survivor count under setting [2] was 3 of 6; the survivor count (dose: 200.0 mg/kg/injection, schedule: Q01DX009 (ip), vehicle: saline) is on record as 0 of 6.

For the molecule `CC[C@H]1C[C@H]2CN(CCc3c([nH]c4ccccc34)[C@@](C(=O)OC)(c3cc4c(cc3OC)N(C=O)[C@H]3[C@@](O)(C(=O)OC)[C@H](OC(C)=O)[C@]5(CC)C=CCN6CC[C@]43[C@@H]65)C2)C1`, the T/C by setting is: (dose: 0.25 mg/kg/injection, schedule: Q01DX001 (ip), vehicle: water) 137 and 144 % of control; (dose: 0.5 mg/kg/injection, schedule: Q01DX001 (ip), vehicle: water) 137 % of control. Also, the survivor count reads like this: (dose: 2.0 mg/kg/injection, schedule: Q01DX001 (ip), vehicle: water) 3 of 6; (dose: 4.0 mg/kg/injection, schedule: Q01DX001 (ip), vehicle: water) 0 of 6; (dose: 8.0 mg/kg/injection, schedule: Q01DX001 (ip), vehicle: water) 0 of 6; (dose: 16.0 mg/kg/injection, schedule: Q01DX001 (ip), vehicle: water) 0 of 6; (dose: 32.0 mg/kg/injection, schedule: Q01DX001 (ip), vehicle: water) 0 of 6.

With `Clc1nc2nc(Cl)c(Cl)n2nc1Cl`, the survivor count reads like this: (dose: 100.0 mg/kg/injection, schedule: Q04DX002 (ip), vehicle: saline with Tween-80) 1 of 6; (dose: 200.0 mg/kg/injection, schedule: Q04DX002 (ip), vehicle: saline with Tween-80) 0 of 6; under setting [3], 0 of 6.

Consider `S=c1[nH]c(=S)c2[nH]c(=S)[nH]c2[nH]1`, for which the survivor count under setting [4] is 6 of 6.

For the molecule `O=C(O)/C(Br)=C(/Br)C(=O)O`, the survivor count under setting [3] is 5 of 6.

As for `C=C1C(O)C2OC3(CCC(/C=C/C(C)C4CC5(C)SC5C5(OC(CC(C)(O)C(=O)O)CCC5O)O4)O3)CCC2OC1C(O)CC(C)C1OC2(CCCCO2)CCC1C` (configuration not stated), the T/C (dose: 7.5 micrograms/kg/injection, schedule: Q01DX005 (ip), vehicle: saline + alcohol) is 126 % of control and the T/C under setting [5] was 125 % of control. Besides, the survivor count under setting [5] is listed as 5 of 5; the survivor count (dose: 30.0 micrograms/kg/injection, schedule: Q01DX005 (ip), vehicle: saline + alcohol) is 0 of 5; the survivor count (dose: 60.0 micrograms/kg/injection, schedule: Q01DX005 (ip), vehicle: saline + alcohol) is 0 of 5.

Take `C[C@@H]1CC2=CC(=O)CC[C@]2(C)[C@H]2CC[C@]3(C)[C@@H](O)CC[C@H]3[C@H]12`: where the note is “dose: 400.0 mg/kg/injection, schedule: Q01DX009 (ip), vehicle: saline with Tween-80”, the survivor count was 6 of 6.

In the case of `O=C([O][Bi]([c]1ccccc1)[c]1ccccc1)c1ccccc1`, the survivor count is recorded as 6 of 6 (dose: 12.5 mg/kg/injection, schedule: Q01DX005 (ip), vehicle: Klucel (hydroxypropylcellulose) (HPC)); 3 of 6 (dose: 100.0 mg/kg/injection, schedule: Q01DX005 (ip), vehicle: Klucel (hydroxypropylcellulose) (HPC)); 0 of 6 under setting [1]. The T/C (dose: 50.0 mg/kg/injection, schedule: Q01DX005 (ip), vehicle: Klucel (hydroxypropylcellulose) (HPC)) was 131 [5 of 6 alive] and 147 % of control.

For the molecule `C1CCC(CCCCc2nn[nH]n2)CC1`, under setting [6], the survivor count is 2 of 5.

For the molecule `Cc1ccc2nc(CN(CCN(Cc3nc4ccc(C)cc4[nH]3)Cc3nc4ccc(C)cc4[nH]3)Cc3nc4ccc(C)cc4[nH]3)[nH]c2c1`, the survivor count (dose: 6.25 mg/kg/injection, schedule: Q01DX005 (ip), vehicle: saline with Tween-80) is given as 4 of 6; the survivor count (dose: 12.5 mg/kg/injection, schedule: Q01DX005 (ip), vehicle: saline with Tween-80) is 3 of 6; the survivor count (dose: 50.0 mg/kg/injection, schedule: Q01DX005 (ip), vehicle: saline with Tween-80) is listed as 0 of 6; the survivor count under setting [4] is recorded as 0 of 6; the survivor count under setting [6] was 0 of 6.

`CN1CCC(CN2c3ccccc3Sc3ccccc32)C1` (configuration not stated): the survivor count under setting [7] was 0 of 6.

Take `FC(F)(F)c1c[nH]cc1C(F)(F)F`: the survivor count (dose: 100.0 mg/kg/injection, schedule: Q04DX002 (ip), vehicle: Klucel (hydroxypropylcellulose) (HPC)) is 6 of 6; the survivor count (dose: 200.0 mg/kg/injection, schedule: Q04DX002 (ip), vehicle: Klucel (hydroxypropylcellulose) (HPC)) is listed as 0 of 6; the survivor count (dose: 400.0 mg/kg/injection, schedule: Q04DX002 (ip), vehicle: Klucel (hydroxypropylcellulose) (HPC)) was 0 of 6.

For `COC1/C=C/OC2(C)Oc3c(C)c(O)c4c(O)c(c(/C=N/N5C(C)CN(Cc6ccc(C(C)(C)C)cc6)CC5C)c(O)c4c3C2=O)NC(=O)/C(C)=C\C=C\C(C)C(O)C(C)C(O)C(C)C(OC(C)=O)C1C` (configuration not stated), the T/C under setting [7] was 134 % of control. Moreover, the survivor count under setting [8] was 6 of 6.

On to `BrCC1(CBr)OCCO1`, for which the survivor count was 0 of 6 under setting [7] and 0 of 6 under setting [8].

In the case of `CC1(C)N=C(N)N=C(N)N1c1cccc(OCCOc2ccc([N+](=O)[O-])cc2)c1`, the T/C runs as follows: (dose: 66.0 mg/kg/injection, schedule: Q01DX009 (ip), vehicle: saline) 127 % of control; under setting [2], 127 % of control; (dose: 150.0 mg/kg/injection, schedule: Q01DX009 (ip), vehicle: saline) 127 % of control.

`CS(C)=Nc1ccc([N+](=O)[O-])cc1`: where the note is “dose: 400.0 mg/kg/injection, schedule: Q01DX001 (ip), vehicle: Klucel (hydroxypropylcellulose) (HPC)”, the survivor count is 2 of 6.

For the molecule `Oc1cc(O)cc(/C=C/c2ccccc2)c1`, the survivor count runs as follows: (dose: 200.0 mg/kg/injection, schedule: Q01DX005 (ip), vehicle: water) 3 of 6; (dose: 400.0 mg/kg/injection, schedule: Q01DX005 (ip), vehicle: water) 2 of 6.

As for `C[CH2][Sn]1([CH2]C)[O]OC(c2ccccc2)[O]1` (configuration not stated), the T/C by setting is: (dose: 1.56 mg/kg/injection, schedule: Q01DX009 (ip), vehicle: saline with Tween-80) 133 % of control; (dose: 3.12 mg/kg/injection, schedule: Q01DX009 (ip), vehicle: saline with Tween-80) 142 and 144 % of control; (dose: 6.25 mg/kg/injection, schedule: Q01DX009 (ip), vehicle: saline with Tween-80) 146 [5 of 6 alive] and 148 % of control. For the same molecule, the survivor count was 0 of 6 (dose: 12.5 mg/kg/injection, schedule: Q01DX009 (ip), vehicle: saline with Tween-80); 0 of 6 and 1 of 6 (dose: 25.0 mg/kg/injection, schedule: Q01DX009 (ip), vehicle: saline with Tween-80).
